PubChem BioAssay AID1259425 – University of Nebraska Medical Center, 2018
Purpose: 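Compare each knockdown with KSR1 silencing using changes in marker transcripts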 (primary screen). Cells: HCT116 human colon cancer cells. Reagent: siRNA pool against human genes, 50 nM siRNA. Detection: 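After 50 nM siRNA pool, branched-DNA assay measures six marker transcripts per well, minus blank, normalised to the geometric mean of two housekeeping transcripts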. Direction: BNIP3L mRNA: higher = more BNIP3L transcript after knockdown; NDRG1 mRNA: higher = more NDRG1 transcript after knockdown; BNIP3 mRNA: higher = more BNIP3 transcript after knockdown; ALDOC mRNA: higher = more ALDOC transcript after knockdown; ACSL5 mRNA: higher = more ACSL5 transcript after knockdown.
The deposit covers about 14,000 reagents; this is an unselected part. Reagent sequences are not shown. Not stated in the record: the time to read-out.

target	BNIP3L mRNA, set 1	NDRG1 mRNA, set 1	BNIP3 mRNA, set 1	ALDOC mRNA, set 1	ACSL5 mRNA, set 1
NDUFS5	0.126	0.202	0.284	0.0229	0.109
HEYL	0.0805	0.135	0.321	0.0029	0.237
ISY1	0.0758	0.16	0.237	0.068	0.132
TP53BP1	0.0732	0.265	0.356	0.0248	0.168
RBM4B	0.273	0.21	0.664	0.113	0.206
SLX9	0.121	0.18	0.196	0.0263	0.104
ADAMTS7	0.0823	0.322	0.245	0.037	0.19
AADAT	0.0456	0.302	0.315	0.0521	0.174
MRTO4	0.0921	0.399	0.24	0.0167	0.139
PXDN	0.0499	0.166	0.217	0.0159	0.156
C1D	0.116	0.192	0.487	0.0715	0.236
ANKRD2	0.113	0.61	0.845	0.107	0.28
PCDHA4	0.0557	0.0702	0.221	0.0188	0.101
P2RX7	0.0767	0.364	0.219	0.0284	0.0984
RBM15	0.0816	0.0988	0.23	0.025	0.221
POU4F2	0.0953	0.179	0.331	0.0268	0.135
FCRL2	0.149	0.188	0.309	0.06	0.363
HSD17B1	0.0832	0.171	0.244	0.0194	0.163
ADCY4	0.053	0.296	0.222	0.0282	0.111
PRDM9	0.0982	0.16	0.445	0.0178	0.229

Copied from the list.
Value for PXDN in “NDRG1 mRNA, set 1”: 0.166
Entry of ADAMTS7 under “BNIP3L mRNA, set 1”: 0.0823
Value for ISY1 in “BNIP3L mRNA, set 1”: 0.0758
